Laboratory results: PubChem BioAssay AID1487 (National Center for Advancing Translational Sciences (NCATS), 2009)
Values joined by “and” are separate entries in the source; they are usually repeats but may differ in a detail not shown here. Equal entries are not always repeated. This is one part of the list. Shown are side measurements of this screen, not its main read-out; they come without a call. Compounds called inactive in the main read-out are mostly missing here. Words in brackets tell the shape of the fitted curve; partial curves, single points and poor fits give uncertain potencies.

Experiment: qHTS Assay for Modulators of Lamin A Splicing
Details: HeLa LMNA splicing GFP/RFP minigene ratio, 48 h
How it was run: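 S3 HeLa cells stably expressing lamin A-EGFP splicing minigene plus DsRed2, 600 cells/well, 48 h compound exposure at 37C. Laser-scanning cytometry; analysed as GFP (500-530 nm)/RFP (575-640 nm) total intensity ratio; 0.5% DMSO vehicle.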

[1] = measured here: GFP splicing reporter channel
[2] = measured here: RFP viability control channel

SMILES	AC50 [1]	AC50 [2]
O=c1[nH]c2ccccc2c2ccccc12	20 µM [rising, partial curve]	6.31 µM [rising, single point]
Cc1snc(S(=O)(=O)Cc2ccccc2Cl)c1C#N	–	0.00562 µM [falling, full curve, poor fit]
COc1cc2c(cc1OC)C(c1ccccc1)N(C(=O)CSCC(=O)O)CC2 (centres undefined)	–	31.6 µM [rising, single point]
COc1ccc(NC(=O)CC(c2ccc(F)cc2)c2ccc(OC)cc2)cc1 (centres undefined)	–	17.8 µM [rising, partial curve, poor fit]
CCOc1nc2ccccc2nc1NS(=O)(=O)c1ccccc1	–	0.0316 µM [rising, full curve, poor fit]
CC(=O)N1N=C(c2ccc3ccccc3c2)OC12CCCC2	25.1 µM [falling, single point]	35.5 µM [falling, single point]
C#CCN(C)Cc1ccccc1	2.82 nM [falling, full curve, poor fit] and 3.16 µM [falling, full curve]	8.91 µM [falling, single point] and 2.82 µM [falling, full curve]
O=C(Cn1c(-c2cscn2)nc2ccccc21)Nc1ccc2ccccc2c1	14.1 µM [falling, single point]	–
CC(=O)Nc1ccc(Nc2ncnc3c2c(-c2ccccc2)cn3-c2ccccc2)cc1	0.00316 µM [falling, full curve, poor fit]	–
Cc1cc(N2CCN(c3ccccc3Cl)CC2)n2cc(-c3ccccc3)nc2n1	11.2 µM [falling, partial curve, poor fit]	–
CCOC(=O)c1ccc(-n2c(CN3CCN(CC)CC3)nc3ccc([N+](=O)[O-])cc3c2=O)cc1	3.16 µM [rising, single point]	–
Cc1ccc(OC(C)c2nnc(N)s2)cc1Cl (centres undefined)	11.2 µM [rising, partial curve]	14.1 µM [rising, partial curve]
CCOC(=O)c1ccc(NC(=O)C2CCN(C(=O)c3ccc(OC)c(OC)c3)CC2)cc1	15.8 µM [rising, single point]	25.1 µM [rising, single point]
CC(C)c1ccc(S(=O)(=O)N2CCCCC2)cc1	0.00501 µM [rising, full curve]	–
CCOc1ccc2nc(N3CCN(C(=O)CS(=O)(=O)c4ccc(F)cc4)CC3)sc2c1	12.6 µM [falling, single point]	11.2 µM [falling, single point]
CCOc1cc(CNc2ccc(N(C)C)cc2)cc(Br)c1OCC(=O)NC(C)(C)C	–	11.2 µM [rising, single point]
Cc1ccc(NC(=O)CN2C(=O)S/C(=C\c3cc(C)n(-c4ccc(C(=O)O)cc4)c3C)C2=O)cc1	0.141 µM [falling, partial curve, poor fit]	–
COc1ccc(CNC(=O)CSc2nnc(-c3ccc(NC(C)=O)cc3)n2C)cc1	3.55 µM [rising, single point]	5.01 µM [rising, single point]
CCn1c(CCNC(=O)c2cccs2)nnc1SCC(=O)Nc1nc(-c2ccccc2)cs1	–	15.8 µM [rising, single point]
Cc1ccccc1NC(=S)NC(NC(=O)COc1ccccc1)C(Cl)(Cl)Cl (centres undefined)	5.62 µM [rising, full curve, poor fit]	7.08 µM [rising, partial curve, poor fit]
CC(C)CCC(O)(CCC(C)C)C(=O)NNc1ccccc1	11.2 µM [rising, single point]	–
O=C(O)c1ccccc1OCCOc1ccccc1	4.47 µM [rising, partial curve, poor fit]	–
O=C(Nc1cc(C(F)(F)F)ccc1Cl)C(Sc1nnc(-c2cccs2)o1)c1ccccc1 (centres undefined)	–	17.8 µM [rising, single point]
CC(NS(=O)(=O)c1ccc(OCC(=O)Nc2cccc([N+](=O)[O-])c2)cc1)c1ccccc1 (centres undefined)	10 µM [rising, partial curve, poor fit]	11.2 µM [rising, partial curve, poor fit]
CCOC(=O)c1noc2nc(C)n(CC(=O)Nc3cc(Cl)ccc3OC)c(=O)c12	0.00316 µM [falling, full curve, poor fit]	–
Cc1cc(C)c(C#N)c(SCc2ccc3c(c2)OCO3)n1	–	12.6 µM [rising, single point]
O=C(COC(=O)c1ccc(Br)o1)Nc1cccc(S(=O)(=O)N2CCCCCC2)c1	25.1 µM [rising, single point]	35.5 µM [rising, single point]

SMILES	AC50 [1]	AC50 [2]
CCOC(=O)c1ccc(NC(=S)N(CCN(C)C)Cc2cccs2)cc1	11.2 µM [falling, partial curve, poor fit]	–
CCOC(=O)c1c(-c2ccccc2)[nH]c2ccc(O)cc12	–	7.94 µM [rising, partial curve]
COc1ccc(OCCCC(=O)Nc2cccc([N+](=O)[O-])c2)cc1	–	35.5 µM [rising, single point]
Oc1c(C(c2ccccc2)N2CCN(Cc3ccccc3)CC2)sc2nc(-c3ccco3)nn12 (centres undefined)	0.0126 µM [falling, full curve]	0.0891 µM [falling, full curve, poor fit]
COC(=O)/C=C1/N/C(=N\c2nc(C)cc(C)n2)N(c2cccc(C)c2)C1=O	17.8 µM [rising, single point]	35.5 µM [rising, single point]
COC(CNC(=O)C1CCCN(S(=O)(=O)c2c(C)noc2/C=C/c2cccs2)C1)OC (centres undefined)	–	10 µM [falling, partial curve, poor fit]
Cc1ccc(S(=O)(=O)N(C)C)cc1NC(=O)COC(=O)c1n[nH]c(=O)c2ccccc12	7.08 µM [falling, full curve]	–
CC(C)C/C(O)=C/c1nc2cc(Cl)ccc2oc1=O	–	10 µM [rising, partial curve]
Cc1ccc(-c2nc3scc(CCNC(=O)c4cccc(Br)c4)n3n2)cc1	35.5 µM [falling, single point]	0.00794 µM [falling, full curve, poor fit]
CSc1ncc(Cl)c(C(=O)Nc2ccccc2Cl)n1	–	0.0224 µM [rising, full curve, poor fit]
O=C(Nc1ccc(-c2noc(-c3cccs3)n2)cc1)c1cccnc1	–	35.5 µM [rising, single point]
CC(=O)c1ccc(NC(=O)c2ccc(CSc3ccccc3)o2)cc1	17.8 µM [rising, partial curve]	14.1 µM [rising, partial curve]
Cc1cc(C)n2nc(C(=O)NC(c3ccccc3)c3ccccc3)nc2n1	–	11.2 µM [falling, single point]
CCOC(=O)c1sc(NC(=O)c2c(C)nn(Cc3ccccc3)c2C)cc1C	35.5 µM [rising, single point]	35.5 µM [rising, single point]
Cn1c(=O)c2c(nc(NC3CCCCC3)n2CC(O)COc2ccccc2)n(C)c1=O (centres undefined)	11.2 µM [rising, single point]	–
O=C(Cn1c(=O)n(Cc2ccco2)c(=O)c2c3c(sc21)CCCCC3)Nc1ccccc1	35.5 µM [rising, single point]	–
Cc1cccc(OCc2nnc(SCc3cc(=O)n4cc(Br)ccc4n3)o2)c1	15.8 µM [rising, single point]	25.1 µM [rising, single point]
COc1ccc(C(=O)Nc2ccc3[nH]c(-c4cccc(OC)c4)cc(=O)c3c2)cc1	0.224 µM [falling, partial curve, poor fit]	–
COc1cccc(OC)c1-c1nn2c(-c3cc(-c4ccccc4)n[nH]3)nnc2s1	22.4 µM [falling, single point]	28.2 µM [falling, single point]
CC(=O)N(CCC(Cc1ccccc1)c1ccc2c(c1)OCO2)Cc1ccc(Cl)cc1 (centres undefined)	20 µM [falling, partial curve, poor fit]	25.1 µM [falling, partial curve, poor fit]
COc1ccc(/C=N/NC(=O)c2ccoc2C)cc1COc1ccc(Cl)cc1	–	11.2 µM [rising, partial curve, poor fit]
Cc1ccc(CC(=O)Nc2nc3c(s2)CCCC3)cc1	–	10 µM [rising, partial curve]
COc1ccc(-c2noc(C3CCCN(C(=O)CCc4ccccc4)C3)n2)cc1 (centres undefined)	–	7.94 µM [rising, partial curve]
COc1ccc2cc(CCC(C)=O)ccc2c1	0.398 µM [falling, full curve]	0.562 µM [falling, full curve]
Cc1cc(C)cc(-n2cnc3cc(C(=O)NCCc4ccccc4)ccc32)c1	15.8 µM [falling, single point]	–
Cc1ccc(S(=O)(=O)CCC(=O)Nc2nc3c(s2)CCCC3)cc1	28.2 µM [falling, single point]	35.5 µM [falling, single point]
CCc1cc(C(=O)Cc2nc3ccccc3[nH]2)c(O)cc1O	–	35.5 µM [rising, single point]

Taken from above:
For AC50 [2], COc1ccc(NC(=O)CC(c2ccc(F)cc2)c2ccc(OC)cc2)cc1 (centres undefined) shows 17.8 µM [rising, partial curve, poor fit]
For AC50 [1], O=C(O)c1ccccc1OCCOc1ccccc1 shows 4.47 µM [rising, partial curve, poor fit]
For AC50 [2], CC(=O)N(CCC(Cc1ccccc1)c1ccc2c(c1)OCO2)Cc1ccc(Cl)cc1 (centres undefined) shows 25.1 µM [falling, partial curve, poor fit]
For AC50 [2], CCOC(=O)c1c(-c2ccccc2)[nH]c2ccc(O)cc12 shows 7.94 µM [rising, partial curve]
